According to paper PMC4505539:
Results are given in words; binding and its absence hold for the method and conditions named. In cells and extracts the contact can be indirect. Some binding calls cover weakened binding; strength is not graded here. For part of these data: Where a sequence is shown, tags or fusion partners need not be part of it.

Key:
HA-tagged ODAM = target: T1, HA-tagged ODAM (UniProt A1E959); assay: co-IP; lysates of co-transfected ALCs (RIPA buffer); IP with anti-HA, anti-FLAG or anti-ARHGEF5 antibody, protein A/G-agarose, 4 °C; Western blot with anti-ARHGEF5 or anti-HA
T1 sequence: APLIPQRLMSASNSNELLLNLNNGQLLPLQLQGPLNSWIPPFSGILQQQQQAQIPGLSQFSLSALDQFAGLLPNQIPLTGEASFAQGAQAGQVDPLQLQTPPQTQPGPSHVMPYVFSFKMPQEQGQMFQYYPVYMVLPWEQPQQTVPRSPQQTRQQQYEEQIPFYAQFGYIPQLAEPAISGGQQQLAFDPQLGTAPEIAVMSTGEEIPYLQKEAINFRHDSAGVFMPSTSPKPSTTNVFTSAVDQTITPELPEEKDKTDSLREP

[1] = target: T2, odontogenic ameloblast-associated protein (ODAM), endogenous in ALCs (not stated (endogenous in ALCs; the paper does not name the species of the cell line)) (UniProt A1E960); assay: co-IP; endogenous proteins in ALC lysate (RIPA buffer: 50 mM Tris-Cl pH 7.5, 150 mM NaCl, 1% Nonidet P-40, 1 mM EDTA); IP with anti-ODAM antibody, protein A/G-agarose, 4 °C; Western blot with anti-ARHGEF5
T2 sequence: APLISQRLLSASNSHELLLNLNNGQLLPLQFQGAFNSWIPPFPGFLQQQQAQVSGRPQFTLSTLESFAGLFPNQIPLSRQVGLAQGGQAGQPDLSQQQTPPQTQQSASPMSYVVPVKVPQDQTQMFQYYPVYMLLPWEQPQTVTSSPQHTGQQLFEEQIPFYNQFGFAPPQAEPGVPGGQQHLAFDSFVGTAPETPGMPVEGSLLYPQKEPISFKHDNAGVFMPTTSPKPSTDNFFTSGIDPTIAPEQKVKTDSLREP

[2] = target: T3, His-ODAM C-terminal protein (UniProt A1E959); assay: pull-down; lysate of ALCs transfected with the FLAG-ARHGEF5 SH domain (RIPA buffer) incubated 1 h at 30 °C with His-ODAM C-terminal protein; captured with anti-His antibody and protein A/G-agarose at 4 °C; Western blot with anti-FLAG; only the target purified
T3 sequence: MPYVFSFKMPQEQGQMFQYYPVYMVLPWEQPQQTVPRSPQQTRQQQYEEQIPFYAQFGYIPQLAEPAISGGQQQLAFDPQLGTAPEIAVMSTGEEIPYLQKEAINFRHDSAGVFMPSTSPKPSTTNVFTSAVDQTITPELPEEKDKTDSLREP

ARHGEF5, transfected construct (from UniProt E9Q7D5 1-1581)
binding (HA-tagged ODAM): binds

Rho guanine nucleotide exchange factor 5 (ARHGEF5), endogenous in ALCs (from UniProt E9Q7D5 1-1581)
binding [1]: binds

B1: FLAG-ARHGEF5 mutant containing only the SH domain (amino acids 1489-1581) (domain or fragment, UniProt E9Q7D5 1489-1581)
chain: DLLECYDSPQVQCLRAYKPRENDELALEKADVVMVTQQSSDGWLEGVRLSDGEQGWFPVQQVEFISNPEVRAQNLKEAHRVKTAKLQLVEQQV
binding [2]: binds
